In the supplement of paper PMC6078165:

Tested on: Hs578T
Experiment: relative JC-1 red fluorescence (viability) vs pre-drug, coculture with fibroblast (fraction); higher = more viable cancer cells
Description: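 JC-1 labelled TNBC cells cocultured 1:1 (1,500 cells each) with CellTrace Violet stained primary or stromal fibroblasts in 384-well plates in FluoroBrite medium, treated with one of 42 anticancer drugs at 0.1, 1, 10 or 100 uM. JC-1 red fluorescence (mitochondrial integrity in cancer cells only) was read by plate reader every 8 h for 72 h. Values are normalised to each well's pre-drug value. The stock of one drug was tenfold lower, so its dose labels may be too high.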

CO[C@H]1C[C@@H]2CC[C@@H](C)[C@@](O)(O2)C(=O)C(=O)N2CCCC[C@H]2C(=O)O[C@H]([C@H](C)C[C@@H]2CC[C@@H](O)[C@H](OC)C2)CC(=O)[C@H](C)/C=C(\C)[C@@H](O)[C@@H](OC)C(=O)[C@H](C)C[C@H](C)/C=C/C=C/C=C/1C [Rapamycin]
relative JC-1 red fluorescence
Conditions | 8 h | 16 h | 24 h | 32 h | 40 h | 48 h | 56 h | 64 h | 72 h
0.1 µM | 0.901 ± 0.024 | 0.81 ± 0.016 | 0.754 ± 0.017 | 0.712 ± 0.014 | 0.653 ± 0.025 | 0.613 ± 0.025 | 0.591 ± 0.017 | 0.549 ± 0.014 | 0.539 ± 0.0096
1 µM | 0.9436 ± 0.0088 | 0.887 ± 0.015 | 0.833 ± 0.013 | 0.785 ± 0.013 | 0.707 ± 0.0099 | 0.659 ± 0.0066 | 0.631 ± 0.0072 | 0.591 ± 0.0084 | 0.577 ± 0.0069

relative JC-1 red fluorescence
Conditions | 8 h | 16 h | 24 h | 32 h | 40 h | 48 h | 56 h | 64 h | 72 h
0.1 µM, coculture fibroblast: C12385 | 0.788 ± 0.011 | 0.663 ± 0.011 | 0.625 ± 0.029 | 0.549 ± 0.027 | 0.501 ± 0.033 | 0.472 ± 0.037 | 0.443 ± 0.038 | 0.44 ± 0.036 | 0.441 ± 0.033
0.1 µM, coculture fibroblast: H6013 | 0.8447 ± 0.0069 | 0.8032 ± 0.0077 | 0.757 ± 0.0089 | 0.728 ± 0.029 | 0.69 ± 0.049 | 0.676 ± 0.06 | 0.661 ± 0.062 | 0.664 ± 0.063 | 0.642 ± 0.07
0.1 µM, coculture fibroblast: H6019 | 0.743 ± 0.02 | 0.653 ± 0.021 | 0.606 ± 0.028 | 0.524 ± 0.042 | 0.491 ± 0.046 | 0.469 ± 0.049 | 0.452 ± 0.045 | 0.445 ± 0.037 | 0.429 ± 0.036
0.1 µM, coculture fibroblast: H6076 | 0.898 ± 0.044 | 0.823 ± 0.028 | 0.785 ± 0.013 | 0.781 ± 0.03 | 0.733 ± 0.039 | 0.732 ± 0.046 | 0.719 ± 0.059 | 0.72 ± 0.062 | 0.728 ± 0.075
0.1 µM, coculture fibroblast: H6231 | 0.8909 ± 0.0012 | 0.7781 ± 0.0022 | 0.742 ± 0.039 | 0.711 ± 0.036 | 0.645 ± 0.04 | 0.631 ± 0.05 | 0.598 ± 0.048 | 0.588 ± 0.046 | 0.582 ± 0.056
0.1 µM, coculture fibroblast: HADF | 0.897 ± 0.01 | 0.805 ± 0.017 | 0.735 ± 0.018 | 0.69 ± 0.0081 | 0.65 ± 0.0092 | 0.6333 ± 0.0043 | 0.61323 ± 0.00017 | 0.61 ± 0.0052 | 0.601 ± 0.0099
0.1 µM, coculture fibroblast: HCFa | 0.844 ± 0.084 | 0.774 ± 0.1 | 0.733 ± 0.13 | 0.707 ± 0.15 | 0.665 ± 0.15 | 0.657 ± 0.16 | 0.625 ± 0.16 | 0.616 ± 0.16 | 0.582 ± 0.15
0.1 µM, coculture fibroblast: HCPF | 0.904 ± 0.039 | 0.796 ± 0.041 | 0.741 ± 0.025 | 0.718 ± 0.011 | 0.6531 ± 0.0052 | 0.6354 ± 0.002 | 0.6153 ± 0.0057 | 0.5945 ± 0.0036 | 0.5849 ± 0.0026
0.1 µM, coculture fibroblast: HHSteC | 0.887 ± 0.0035 | 0.7951 ± 0.0022 | 0.7407 ± 0.0066 | 0.693 ± 0.0085 | 0.645 ± 0.019 | 0.614 ± 0.02 | 0.601 ± 0.024 | 0.58 ± 0.035 | 0.556 ± 0.041
0.1 µM, coculture fibroblast: HMF | 0.8865 ± 0.002 | 0.772 ± 0.026 | 0.7239 ± 0.0042 | 0.714 ± 0.013 | 0.661 ± 0.01 | 0.638 ± 0.018 | 0.606 ± 0.018 | 0.592 ± 0.012 | 0.584 ± 0.006
0.1 µM, coculture fibroblast: HPFa | 0.914 ± 0.01 | 0.8135 ± 0.0055 | 0.762 ± 0.013 | 0.703 ± 0.021 | 0.655 ± 0.013 | 0.627 ± 0.017 | 0.594 ± 0.015 | 0.579 ± 0.012 | 0.546 ± 0.0069
0.1 µM, coculture fibroblast: HUF | 0.879 ± 0.034 | 0.741 ± 0.042 | 0.714 ± 0.059 | 0.621 ± 0.06 | 0.568 ± 0.061 | 0.536 ± 0.063 | 0.501 ± 0.062 | 0.498 ± 0.075 | 0.488 ± 0.071
0.1 µM, coculture fibroblast: Hs27A | 0.89033 ± 2.8e-05 | 0.811 ± 0.025 | 0.744 ± 0.075 | 0.69 ± 0.08 | 0.627 ± 0.088 | 0.619 ± 0.088 | 0.593 ± 0.094 | 0.585 ± 0.099 | 0.548 ± 0.1
0.1 µM, coculture fibroblast: Hs343T | 0.934 ± 0.032 | 0.823 ± 0.024 | 0.761 ± 0.0098 | 0.736 ± 0.027 | 0.677 ± 0.03 | 0.65 ± 0.058 | 0.614 ± 0.057 | 0.594 ± 0.065 | 0.595 ± 0.074
0.1 µM, coculture fibroblast: WS1 | 0.8194 ± 0.0033 | 0.722 ± 0.026 | 0.672 ± 0.014 | 0.583 ± 0.024 | 0.524 ± 0.041 | 0.511 ± 0.054 | 0.479 ± 0.059 | 0.481 ± 0.076 | 0.484 ± 0.081
1 µM, coculture fibroblast: C12385 | 0.826 ± 0.0025 | 0.784 ± 0.0092 | 0.75 ± 0.021 | 0.685 ± 0.021 | 0.631 ± 0.022 | 0.613 ± 0.02 | 0.593 ± 0.015 | 0.592 ± 0.015 | 0.594 ± 0.013
1 µM, coculture fibroblast: H6013 | 0.9137 ± 0.0055 | 0.899 ± 0.015 | 0.8664 ± 0.0041 | 0.8412 ± 0.0069 | 0.806 ± 0.011 | 0.804 ± 0.014 | 0.799 ± 0.025 | 0.8 ± 0.021 | 0.788 ± 0.025
1 µM, coculture fibroblast: H6019 | 0.797 ± 0.01 | 0.786 ± 0.037 | 0.809 ± 0.07 | 0.745 ± 0.086 | 0.716 ± 0.098 | 0.703 ± 0.1 | 0.69 ± 0.12 | 0.677 ± 0.13 | 0.666 ± 0.14
1 µM, coculture fibroblast: H6076 | 0.909 ± 0.028 | 0.873 ± 0.04 | 0.85 ± 0.053 | 0.832 ± 0.047 | 0.787 ± 0.049 | 0.773 ± 0.047 | 0.756 ± 0.055 | 0.754 ± 0.056 | 0.749 ± 0.065
1 µM, coculture fibroblast: H6231 | 0.895 ± 0.031 | 0.845 ± 0.038 | 0.818 ± 0.017 | 0.7773 ± 0.0068 | 0.72096 ± 0.00071 | 0.7015 ± 0.0047 | 0.66234 ± 3e-05 | 0.6521 ± 0.003 | 0.6488 ± 0.0056
1 µM, coculture fibroblast: HADF | 0.9153 ± 0.0043 | 0.894 ± 0.036 | 0.828 ± 0.062 | 0.77 ± 0.066 | 0.721 ± 0.08 | 0.695 ± 0.096 | 0.663 ± 0.12 | 0.657 ± 0.13 | 0.63 ± 0.14
1 µM, coculture fibroblast: HCFa | 0.8677 ± 0.0059 | 0.838 ± 0.048 | 0.772 ± 0.075 | 0.726 ± 0.096 | 0.663 ± 0.11 | 0.642 ± 0.11 | 0.612 ± 0.11 | 0.598 ± 0.12 | 0.565 ± 0.12
1 µM, coculture fibroblast: HCPF | 0.921 ± 0.017 | 0.872 ± 0.027 | 0.8652 ± 0.0049 | 0.8371 ± 0.0029 | 0.791 ± 0.012 | 0.7801 ± 0.002 | 0.77 ± 0.012 | 0.7428 ± 0.0043 | 0.736 ± 0.012
1 µM, coculture fibroblast: HHSteC | 0.889 ± 0.017 | 0.85 ± 0.024 | 0.797 ± 0.019 | 0.757 ± 0.019 | 0.705 ± 0.013 | 0.671 ± 0.011 | 0.6444 ± 0.0039 | 0.6256 ± 0.0037 | 0.596 ± 0.0076
1 µM, coculture fibroblast: HMF | 0.907 ± 0.059 | 0.863 ± 0.064 | 0.805 ± 0.0088 | 0.773 ± 0.021 | 0.712 ± 0.027 | 0.683 ± 0.04 | 0.642 ± 0.05 | 0.622 ± 0.066 | 0.607 ± 0.08
1 µM, coculture fibroblast: HPFa | 0.901 ± 0.025 | 0.865 ± 0.063 | 0.823 ± 0.091 | 0.779 ± 0.1 | 0.75 ± 0.12 | 0.732 ± 0.13 | 0.703 ± 0.13 | 0.688 ± 0.14 | 0.661 ± 0.14
1 µM, coculture fibroblast: HUF | 0.86 ± 0.016 | 0.791 ± 0.013 | 0.765 ± 0.026 | 0.677 ± 0.046 | 0.613 ± 0.052 | 0.581 ± 0.052 | 0.545 ± 0.052 | 0.534 ± 0.045 | 0.528 ± 0.041
1 µM, coculture fibroblast: Hs27A | 0.894 ± 0.023 | 0.868 ± 0.021 | 0.835 ± 0.015 | 0.8056 ± 0.0063 | 0.7536 ± 0.0038 | 0.741 ± 0.0091 | 0.713 ± 0.015 | 0.705 ± 0.026 | 0.665 ± 0.029
1 µM, coculture fibroblast: Hs343T | 0.951 ± 0.022 | 0.886 ± 0.033 | 0.83 ± 0.0042 | 0.802 ± 0.026 | 0.736 ± 0.047 | 0.71 ± 0.061 | 0.668 ± 0.077 | 0.645 ± 0.077 | 0.643 ± 0.095
1 µM, coculture fibroblast: WS1 | 0.792 ± 0.016 | 0.738 ± 0.055 | 0.686 ± 0.05 | 0.621 ± 0.062 | 0.573 ± 0.059 | 0.569 ± 0.065 | 0.553 ± 0.059 | 0.558 ± 0.059 | 0.562 ± 0.061

± gives the standard deviation of the averaged measurements. Values are relative to the signal before dosing, not to a vehicle control; the signal also falls without drug.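 Fibroblast labels name human fibroblasts: mostly primary ones from tissues such as uterus (C12385, HUF), lung (H6013), bone (Hs27A), adrenal (HADF) and skin (WS1), plus mammary HMF and breast cancer-associated Hs343T. The cancer cells are basal-like or mesenchymal-like triple-negative breast cancer lines. The paper calls a changed response a hit when it shifts by more than 3x the replicate standard deviation. The tissue of the other fibroblasts is not given here.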
